Reference: article PMC5512577, “PDE6δ-mediated sorting of INPP5E into the cilium is determined by cargo-carrier affinity” (Nature Communications, 2016)
Results are given in words; binding and its absence hold for the method and conditions named. Some entries that bind do so weakly or less than the wild type.

Sequences of proteins named here, by UniProt entry; tags and fusion partners are left off.
UniProt Q9D0J4: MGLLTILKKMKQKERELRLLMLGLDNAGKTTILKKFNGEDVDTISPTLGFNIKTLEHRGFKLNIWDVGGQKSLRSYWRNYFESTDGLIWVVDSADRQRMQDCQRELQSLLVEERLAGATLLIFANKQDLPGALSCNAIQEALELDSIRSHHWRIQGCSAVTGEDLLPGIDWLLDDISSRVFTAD
UniProt Q9WUL7: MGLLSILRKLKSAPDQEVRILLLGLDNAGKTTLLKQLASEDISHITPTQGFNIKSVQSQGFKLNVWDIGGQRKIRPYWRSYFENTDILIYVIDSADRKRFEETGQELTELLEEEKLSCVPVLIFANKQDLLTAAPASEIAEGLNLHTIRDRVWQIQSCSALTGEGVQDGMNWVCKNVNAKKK

Target: GST-PDE6δ (UniProt O43924)
Assay: pull-down; release step of the GST pull-down: 20 μM Arl2 or Arl3 (GppNHp) added to GST-PDE6δ beads loaded from IMCD3 lysate, 1 h at 4 °C; read by loss of GFP-INPP5E; both purified

Row | Substance | binding
1 | full-length Arl2, C-terminal histidine-tagged, bound to GppNHp or mantGppNHp (from UniProt Q9D0J4 1-184) | binds
2 | full-length Arl3, C-terminal histidine-tagged, bound to GppNHp or mantGppNHp (from UniProt Q9WUL7 1-182) | binds
